Data as given in PubChem BioAssay AID1259308 (NCATS, 2017)

- Aim: 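Candidate targets for better recombinant protein yield in mammalian cells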 (primary screen)
- Cell system: human HEK293 embryonic kidney cells stably expressing firefly luciferase (HEK-CMV-Luc2-Hygro)
- Knock-down reagent: single siRNA against human genes, 0.8 pmol siRNA per well
- Time to read-out: 72 h
- Detection: 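Luciferase light (ONE-Glo) measured on one replicate plate set and viability (CellTiter-Glo) on the other, scaled to a negative control siRNA, with robust z-scores and luciferase per cell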
- Scale: total luciferase, z-score: higher = more reporter protein produced
- Hit rule: 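Active when the median/MAD z-score for overall luciferase is greater than 3; a gene was taken forward for validation with new siRNAs if at least two of its three siRNAs passed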
- Meaning of the calls: active = raised luciferase; inactive = no rise
This is one part, drawn at random, of about 59,000 reagents. About 1,510 of all reagents (2.6%) were called active. 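Calls use total luciferase alone and ignore viability, so some active siRNAs may act by altering cell number.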 The numbers tell different reagents against one gene apart. Further read-outs or replicates are left out here.

With knock-down of C9orf78 (chromosome 9 open reading frame 78) #1, the screen gave total luciferase, z-score -1.09; inactive.
With knock-down of C9orf78 (chromosome 9 open reading frame 78) #2, the record shows total luciferase, z-score -0.153; inactive.
C9orf78 (chromosome 9 open reading frame 78) #3 scored total luciferase, z-score 1.25; inactive.
Against NDRG1 (N-myc downstream regulated 1) #1, the entry reads total luciferase, z-score -0.767; inactive.
Knock-down of NDRG1 (N-myc downstream regulated 1) #2 came out at: total luciferase, z-score -1.2; inactive.
Against NDRG1 (N-myc downstream regulated 1) #3, the entry reads total luciferase, z-score 0.0195; inactive.
DPP4 (dipeptidyl peptidase 4) #1 gave total luciferase, z-score -0.25; inactive.
With knock-down of DPP4 (dipeptidyl peptidase 4) #2 the results were total luciferase, z-score 1.14; inactive.
Against DPP4 (dipeptidyl peptidase 4) #3 the deposit lists total luciferase, z-score -1.14; inactive.
Knock-down of TBC1D9B (TBC1 domain family member 9B) #1 gave: total luciferase, z-score -0.369; inactive.
TBC1D9B (TBC1 domain family member 9B) #2 gave total luciferase, z-score -0.103; inactive.
With knock-down of TBC1D9B (TBC1 domain family member 9B) #3, the screen gave total luciferase, z-score 0.351; inactive.
For PCP4L1 (Purkinje cell protein 4 like 1) #1, the entry reads total luciferase, z-score -0.125; inactive.
Depletion of PCP4L1 (Purkinje cell protein 4 like 1) #2 gave: total luciferase, z-score 0.723; inactive.
With knock-down of PCP4L1 (Purkinje cell protein 4 like 1) #3, the record shows total luciferase, z-score 0.726; inactive.
MAEA (macrophage erythroblast attacher, E3 ubiquitin ligase) #1 showed total luciferase, z-score -0.889; inactive.
Depletion of MAEA (macrophage erythroblast attacher, E3 ubiquitin ligase) #2 gave: total luciferase, z-score -0.713; inactive.
Depletion of MAEA (macrophage erythroblast attacher, E3 ubiquitin ligase) #3 gave: total luciferase, z-score 0.319; inactive.
Silencing of CLK3 (CDC like kinase 3) #1 came out at: total luciferase, z-score -1.24; inactive.
Against CLK3 (CDC like kinase 3) #2 the deposit lists total luciferase, z-score -1.45; inactive.
CLK3 (CDC like kinase 3) #3 gave total luciferase, z-score -0.263; inactive.
After knock-down of NDUFS3 (NADH:ubiquinone oxidoreductase core subunit S3) #1, the screen gave total luciferase, z-score -0.052; inactive.
Against NDUFS3 (NADH:ubiquinone oxidoreductase core subunit S3) #2, the values are total luciferase, z-score -0.245; inactive.
Knock-down of NDUFS3 (NADH:ubiquinone oxidoreductase core subunit S3) #3 gave: total luciferase, z-score 1.32; inactive.
Against LARP6 (La ribonucleoprotein 6, translational regulator) #1 the deposit lists total luciferase, z-score -0.95; inactive.
Knock-down of LARP6 (La ribonucleoprotein 6, translational regulator) #2 came out at: total luciferase, z-score 0.496; inactive.
Depletion of LARP6 (La ribonucleoprotein 6, translational regulator) #3 gave: total luciferase, z-score -0.662; inactive.
After knock-down of MEA1 (male-enhanced antigen 1) #1 the results were total luciferase, z-score 4.13; active.
For MEA1 (male-enhanced antigen 1) #2, the entry reads total luciferase, z-score -0.377; inactive.
For MEA1 (male-enhanced antigen 1) #3 the deposit lists total luciferase, z-score -1.6; inactive.
Against SYNPR (synaptoporin) #1, the values are total luciferase, z-score 1.41; inactive.
After knock-down of SYNPR (synaptoporin) #2, the record shows total luciferase, z-score 2.32; inactive.
Depletion of SYNPR (synaptoporin) #3 resulted in: total luciferase, z-score -0.811; inactive.
After knock-down of MICAL3 #1, the screen gave total luciferase, z-score 0.7; inactive.
After knock-down of MICAL3 #2 the results were total luciferase, z-score -0.134; inactive.
With knock-down of MICAL3 #3, the record shows total luciferase, z-score -0.742; inactive.
PTBP3 (polypyrimidine tract binding protein 3) #1 showed total luciferase, z-score -1.29; inactive.
After knock-down of PTBP3 (polypyrimidine tract binding protein 3) #2, the record shows total luciferase, z-score 2.8; inactive.
Against PTBP3 (polypyrimidine tract binding protein 3) #3 the deposit lists total luciferase, z-score -0.573; inactive.
Against SF3B1 (splicing factor 3b subunit 1) #1 the deposit lists total luciferase, z-score -0.657; inactive.
Silencing of SF3B1 (splicing factor 3b subunit 1) #2 came out at: total luciferase, z-score 2.38; inactive.
Against SF3B1 (splicing factor 3b subunit 1) #3, the entry reads total luciferase, z-score 2.14; inactive.

As entered above:
Under “total luciferase, z-score”, PTBP3 (polypyrimidine tract binding protein 3) #3 is entered as -0.573
Value for NDUFS3 (NADH:ubiquinone oxidoreductase core subunit S3) #3 under “outcome”: inactive
For “total luciferase, z-score”, SYNPR (synaptoporin) #3 is entered as -0.811
For “outcome”, CLK3 (CDC like kinase 3) #2 reads inactive
Under “total luciferase, z-score”, TBC1D9B (TBC1 domain family member 9B) #2 is entered as -0.103
